This experiment deals with Swiss mice, Sarcoma 180 sc, mean tumor weight T/C. In words: NCI In Vivo Anticancer Drug Screen. Data for tumor model Sarcoma 180 (subcutaneous) in Swiss mice. As to conditions: T/C endpoint: mean tumor weight, higher T/C = larger tumour; for T/C: evaluated on day 8. On the procedure: The antitumor activity of compounds was measured in mice bearing transplantable tumors. Survival or tumor size were measured and the results are expressed as the measurement made in the treated group (T) divided by the measurement made in the vehicle treated control group (C). The tumor model used in this assay is Sarcoma 180 (subcutaneous) in Swiss mice

[1] abbreviates: dose: 500.0 mg/kg/injection, schedule: Q01DX007 (ip), vehicle: carboxymethylcellulose (CMC).
Setting [2] is: dose: 300.0 mg/kg/injection, schedule: Q01DX007 (ip), vehicle: carboxymethylcellulose (CMC).
Setting [3] is: dose: 750.0 mg/kg/injection, schedule: Q01DX007 (ip), vehicle: saline.
Setting [4] is: dose: 500.0 mg/kg/injection, schedule: Q01DX007 (ip), vehicle: saline.
Where [5] appears, read: dose: 6.2 mg/kg/injection, schedule: Q01DX007 (ip), vehicle: saline.

Structures are written as SMILES. The list shows only some results of the screen, not a fair sample: it is rich in T/C values a quarter to a half above the control, in often repeated tests (any T/C) and in doses without a T/C. Further doses and runs are listed elsewhere. T/C is the treated group as % of the vehicle group. Schedules are NCI's codes, read here as Q, the interval in days (D) or hours (H), X, the number of doses. Some schedule codes hold Z or #, which are not explained here. Some T/C values are followed by the survivors on the day toxicity was checked, most often the fifth; without a count, all were alive then. Some entries give survivors of the animals treated and no T/C: the source holds a T/C of zero for them, seemingly a mark for toxic or unscored doses. Counts of survivors are from the toxicity check (mostly the fifth day) where no day follows; animals may have died later. Some doses were run more than once; the values are given in rising order.

As for `Cn1c2c(c3ccccc31)CCN1C[C@@H]3CCCC[C@H]3C[C@@H]21`, the survivor count is 0 of 6 (dose: 75.0 mg/kg/injection, schedule: Q01DX007 (ip), vehicle: saline); 1 of 6 (dose: 110.0 mg/kg/injection, schedule: Q01DX007 (ip), vehicle: saline); 0 of 6 (dose: 165.0 mg/kg/injection, schedule: Q01DX007 (ip), vehicle: saline); 0 of 6 (dose: 250.0 mg/kg/injection, schedule: Q01DX007 (ip), vehicle: saline).
For the compound `O=C(NCCCCCCCCCCNC(=O)N1CC1)N1CC1`, the survivor count (dose: 6.0 mg/kg/injection, schedule: Q01DX007 (ip), vehicle: carboxymethylcellulose (CMC)) is reported as 3 of 6.
Consider `O=C1Nc2ccccc2/C1=C/c1cccnc1`, for which the survivor count under setting [1] is 3 of 6.
Consider `Cc1nc(C(N)=O)nc2ccccc12`, for which the survivor count is 3 of 6 (dose: 250.0 mg/kg/injection, schedule: Q#A X014 (ip), vehicle: methylcellulose (MC)); 1 of 6 and 2 of 7 under setting [2]; 0 of 6 (dose: 450.0 mg/kg/injection, schedule: Q01DX007 (ip), vehicle: carboxymethylcellulose (CMC)); 0 of 6 (dose: 675.0 mg/kg/injection, schedule: Q01DX007 (ip), vehicle: carboxymethylcellulose (CMC)).
For the compound `CC(C)(C#N)C#N`, the survivor count runs as follows: (dose: 375.0 mg/kg/injection, schedule: Q01DX007 (ip), vehicle: saline) 3 of 6; under setting [3], 2 of 6.
Take `C=CCNc1ccc(C)cc1`: the survivor count is recorded as 2 of 7 (dose: 105.0 mg/kg/injection, schedule: Q01DX007 (ip), vehicle: carboxymethylcellulose (CMC)) and 1 of 6 (dose: 236.0 mg/kg/injection, schedule: Q01DX007 (ip), vehicle: carboxymethylcellulose (CMC)).
Consider `COC(=O)C1=COC(C)C2CN3CCc4c([nH]c5cc(OC)ccc45)C3CC12` (centres undefined), for which the survivor count (dose: 400.0 mg/kg/injection, schedule: Q01DX007 (ip), vehicle: other) is on record as 2 of 6.
`N#CCOC(=O)CCC(NC(=O)OCc1ccccc1)C(N)=O` (centres undefined): the survivor count (dose: 75.0 mg/kg/injection, schedule: Q01DX007 (ip), vehicle: carboxymethylcellulose (CMC)) is 2 of 6.
For `CC(CN)CCC(C)(O)C(N)=O` (centres undefined), the survivor count (dose: 281.25 mg/kg/injection, schedule: Q#A X014 (ip), vehicle: methylcellulose (MC)) was 2 of 6.
Take `CO[C@H]1CC[C@@]2(C)C(=CC[C@H]3[C@@H]4C[C@H](O)[C@H](OC)[C@@]4(C)CC[C@@H]32)C1`: the T/C (dose: 1.25 mg/kg/injection, schedule: Q#A X014 (sc), vehicle: steroid suspending solution) was 131 % of control. Where the note is “dose: 250.0 mg/kg/injection, schedule: Q#A X014 (sc), vehicle: steroid suspending solution”, the survivor count was 3 of 6.
`CC(=O)OCC(=O)[C@@]1(O)CC[C@H]2[C@@H]3CCC4=CC(=O)CC[C@]4(C)[C@H]3[C@@H](O)C[C@@]21C`: where the note is “dose: 100.0 mg/kg/injection, schedule: Q#A X014 (ip), vehicle: steroid suspending solution”, the survivor count is reported as 1 of 6.
With `OCC1OC(n2cnc3c(Cl)ncnc32)C(O)C1O` (centres undefined), the T/C (dose: 600.0 mg/kg/injection, schedule: Q01DX007 (ip), vehicle: carboxymethylcellulose (CMC)) is 129 % of control.
For `COc1ccc2c(c1O)-c1c(OC)c(OC)cc3c1[C@H](C2)[N+](C)(C)CC3`, where the note is “dose: 1.25 mg/kg/injection, schedule: Q01DX007 (ip), vehicle: saline”, the T/C was 127 % of control. Further, the survivor count (dose: 10.0 mg/kg/injection, schedule: Q01DX007 (ip), vehicle: saline) is reported as 3 of 6; the survivor count (dose: 55.0 mg/kg/injection, schedule: Q01DX007 (ip), vehicle: saline) was 0 of 6; the survivor count (dose: 83.0 mg/kg/injection, schedule: Q01DX007 (ip), vehicle: saline) is 0 of 6; the survivor count (dose: 125.0 mg/kg/injection, schedule: Q01DX007 (ip), vehicle: saline) is on record as 0 of 6.
With `COC(=O)c1[nH]c(=O)[nH]c(=O)c1F`, where the note is “dose: 70.0 mg/kg/injection, schedule: Q01DX007 (ip), vehicle: carboxymethylcellulose (CMC)”, the survivor count is listed as 3 of 6.
Take `CC(C)C(=O)OCC1OC(n2cnc3c(=S)nc(N)[nH]c32)C(OC(=O)C(C)C)C1OC(=O)C(C)C` (centres undefined): for the setting “dose: 47.0 mg/kg/injection, schedule: Q01DX007 (ip), vehicle: methylcellulose (MC)”, the survivor count is 3 of 6.
As to `CC(=O)Nc1c(Cl)c(Cl)c2c(c1Cl)Cc1cc(Br)ccc1-2`, the survivor count is reported as 2 of 6 (dose: 12.0 mg/kg/injection, schedule: Q01DX007 (ip), vehicle: carboxymethylcellulose (CMC)); 1 of 6 (dose: 50.0 mg/kg/injection, schedule: Q01DX007 (ip), vehicle: carboxymethylcellulose (CMC)); 3 of 6 (dose: 95.0 mg/kg/injection, schedule: Q01DX007 (ip), vehicle: other).
As for `CS(=O)(=O)OCC#CCOS(C)(=O)=O`, the survivor count (dose: 80.0 mg/kg/injection, schedule: Q01DX007 (ip), vehicle: saline) is reported as 1 of 6.
As for `CC(=O)Nc1c(Cl)cc2c(c1Cl)Cc1cc([N+](=O)[O-])ccc1-2`, the survivor count reads like this: (dose: 333.0 mg/kg/injection, schedule: Q01DX007 (ip), vehicle: saline) 2 of 6; under setting [4], 2 of 6; under setting [3], 3 of 6.
Turning to `CC(=O)OCC(=O)[C@@]1(O)CC[C@H]2[C@@H]3C[C@@H](C)C4=CC(=O)C=C[C@]4(C)[C@H]3[C@@H](O)C[C@@]21C`, the survivor count (dose: 563.0 mg/kg/injection, schedule: Q01DX007 (sc), vehicle: steroid suspending solution) is recorded as 3 of 6.
Turning to `CCN(CC)P(=S)(N1CC1)N1CC1`, the survivor count runs as follows: (dose: 335.0 mg/kg/injection, schedule: Q01DX007 (ip), vehicle: saline) 3 of 6; under setting [4], 2 of 6.
Consider `CNNCc1ccc(C(=O)NC(N)=O)cc1`, for which the survivor count is, setting by setting: under setting [1], 2 of 6; under setting [4], 3 of 6.
On to `CCCOP(=S)(N1CC1)N1CC1`, for which the survivor count was 3 of 6 (dose: 22.5 mg/kg/injection, schedule: Q#A X014 (ip), vehicle: methylcellulose (MC)); 1 of 6 and 3 of 6 (dose: 22.5 mg/kg/injection, schedule: Q#A X014 (ip), vehicle: saline).
With `CC(C)(c1ccccc1)c1ccc(O)cc1`, the survivor count under setting [2] is on record as 0 of 7.
In the case of `CO[C@H]1CC[C@@]2(C)C(=CC[C@@H]3[C@@H]2CC[C@]2(C)C(=O)C(=O)C[C@@H]32)C1`, the survivor count (dose: 15.0 mg/kg/injection, schedule: Q01DX007 (sc), vehicle: steroid suspending solution) was 3 of 6 and the survivor count (dose: 50.0 mg/kg/injection, schedule: Q01DX007 (sc), vehicle: steroid suspending solution) is on record as 3 of 6.
As for `O=C(O)c1ccc(-c2ccccc2)cc1`, where the note is “dose: 400.0 mg/kg/injection, schedule: Q01DX007 (ip), vehicle: carboxymethylcellulose (CMC)”, the survivor count is 2 of 4.
In the case of `Nc1nc(=S)c2ncn(C3OC(CO)C(O)C3O)c2[nH]1` (centres undefined), the T/C (dose: 1.0 mg/kg/injection, schedule: Q01DX007 (ip), vehicle: carboxymethylcellulose (CMC)) was 140 % of control.
Consider `O=C(O)CCCNC(=O)c1ccc([N+](=O)[O-])cc1`, for which the survivor count (dose: 500.0 mg/kg/injection, schedule: Q01DX007 (ip), vehicle: methylcellulose (MC)) is 3 of 6.
On to `NCC(O)c1ccc(O)c(O)c1` (centres undefined), for which, under setting [5], the T/C is 135 % of control [5 of 6 alive]. For the same compound, the survivor count by setting is: under setting [5], 0 of 6; (dose: 25.0 mg/kg/injection, schedule: Q01DX007 (ip), vehicle: saline) 1 of 6; (dose: 50.0 mg/kg/injection, schedule: Q01DX007 (ip), vehicle: saline) 1 of 6.
Regarding `CC1=C(/C=C/C(C)=N/NC(N)=S)C(C)(C)CCC1`, the survivor count (dose: 45.0 mg/kg/injection, schedule: Q01DX007 (ip), vehicle: other) is 0 of 6.
With `Nc1nc(=S)c2ncn(C3OC(COC(=O)c4ccc([N+](=O)[O-])cc4)C(OC(=O)c4ccc([N+](=O)[O-])cc4)C3OC(=O)c3ccc([N+](=O)[O-])cc3)c2[nH]1` (centres undefined), the survivor count (dose: 80.0 mg/kg/injection, schedule: Q01DX007 (ip), vehicle: carboxymethylcellulose (CMC)) was 3 of 6.

Values taken from PubChem BioAssay AID342 (DTP/NCI, 2004).
